Results deposited as PubChem BioAssay AID504784 (Drosophila RNAi Screening Center, 2011).

Purpose: 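Search for regulators of lipid droplet storage in oleate-fed fly cells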 (primary screen)
Cells: Drosophila Kc167 embryonic cells
Reagents: long dsRNA against Drosophila genes, about 250 ng dsRNA per well
Duration: 4 days
Challenge: cells fed 400 µM oleic acid bound to BSA
Read-out: 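Microscope images give a droplet-to-nucleus area ratio, taken as log and converted to a screen-wide B-score; higher values mean greater lipid storage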
Scale: droplet/nuclear area B-score: higher = more stored lipid (overstorage)
In all, the deposit lists about 17,000 reagents; below is an unselected part of those with a known target gene and a result. 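Each column is one replicate's B-score; the combined score over replicates was not deposited, so single values may mislead.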 The numbers tell different reagents against one gene apart. A plus sign joins genes that one reagent is predicted to hit. Reagent sequences are not shown.

Target gene | reagent no. | droplet/nuclear area B-score, replicate 1 | droplet/nuclear area B-score, replicate 2 | droplet/nuclear area B-score, replicate 3
Ccp84Ac | 1 | 0.598 | 0.103 | –
ry | 1 | 0.624 | -4.76 | –
pan | 1 | 1.7 | -0.688 | –
pan | 2 | 0.385 | -1.62 | –
HLH3B | 1 | -1.45 | -0.215 | –
CG31161 | 1 | 0.0611 | -1.79 | –
Vm32E | 1 | -1.78 | -0.00384 | –
CG14565 | 1 | -0.0802 | -1.88 | –
Lectin-galC1 | 1 | -0.805 | 0.441 | –
CG1143 | 1 | 0.683 | 2.17 | –
CG1368 | 1 | 0.621 | 0.0129 | -0.829
sut3 | 1 | -0.807 | 1.27 | –
h-cup + Rbp | 1 | -0.888 | -1.33 | –
sv | 1 | -0.00805 | -0.0135 | –
CG43740 | 1 | -0.583 | -0.783 | -1.31
CG43740 | 2 | -1.41 | 0.38 | –
CG10029 | 1 | 0.692 | 0.366 | –
CG14720 | 1 | -0.837 | 0.203 | –
Sardh | 1 | -0.388 | 2.57 | –
CG10035 | 1 | -0.133 | -0.226 | –
Rlip | 1 | -0.314 | 0.947 | –
REPTOR-BP | 1 | 0.261 | 0.458 | –
CG13101 | 1 | 0.197 | – | –
naz | 1 | -0.0501 | 2.26 | –
naz | 2 | 0.00602 | 4.11 | –
Elp3 | 1 | -0.257 | -0.607 | –
GluRIIC | 1 | 0.293 | 0.0774 | –
Tango10 | 1 | -1.54 | -0.797 | -0.0785
grk | 1 | -0.19 | 0.0334 | –
Csk | 1 | -0.482 | -0.179 | –
Csk | 2 | -3.83 | -5.96 | –
Csk | 3 | -0.0816 | -0.268 | –
nub | 1 | 0.017 | -0.286 | –
nub | 2 | 4.31 | 3.05 | –
nub | 3 | -1.73 | -0.27 | –
nub | 4 | 0.698 | 1.72 | –
Rab27 | 1 | 0.134 | – | –
CG30380 | 1 | -1.7 | 0.43 | –
CG4714 | 1 | -0.753 | -0.887 | –
ND-39 | 1 | 5.55 | 0.925 | 1.89
Cpr51A | 1 | -0.101 | 0.474 | –
Sap-r | 1 | -0.278 | 1.37 | -0.892
Sap-r | 2 | 1.38 | -1.28 | –
CG13794 | 1 | 0.0707 | 1.62 | –
CG15385 | 1 | 0.16 | -3.96 | –
CG5180 | 1 | -0.214 | -0.435 | –
sbb | 1 | -0.0214 | -0.173 | –
sbb | 2 | -0.588 | -1.13 | –
CG6118 | 1 | 1.7 | 3.31 | –
CG6118 | 2 | -1.35 | -2.26 | –
croc | 1 | 0.401 | -0.331 | –
E(spl)mdelta-HLH | 1 | -0.213 | -0.0822 | –
CG8526 | 1 | 0.038 | -2.34 | –
CG15461 | 1 | 1.58 | -1.91 | –
trbl | 1 | -2.03 | -0.0354 | –
Tsp42Er | 1 | -0.443 | -0.0846 | –
CG14441 | 1 | 0.705 | 3.61 | –
Uev1A | 1 | 0.71 | -1.35 | –
CG15923 | 1 | -0.0537 | -0.457 | –
Osi22 | 1 | -1.61 | 1.33 | –
CG4730 | 1 | 0.903 | -0.0661 | –
CG13594 | 1 | -0.131 | 3.07 | –
CG13594 | 2 | 0.338 | -1.09 | –
His3.3A | 1 | 2.97 | 2.71 | –
CG13609 | 1 | -0.111 | -2.37 | –
CG13609 | 2 | -1.19 | 3.01 | –
CG8641 | 1 | -1.13 | 1.87 | –
Chsy | 1 | 1.93 | 0.641 | –
Chsy | 2 | -2.79 | 0.0889 | -0.25
CG32726 | 1 | -1.11 | -1.15 | –

Only “droplet/nuclear area B-score, replicate 1”, for 10 of the entries above:
CG4714 = -0.753
ND-39 = 5.55
Cpr51A = -0.101
Sap-r #1 = -0.278
Sap-r #2 = 1.38
CG13794 = 0.0707
CG15385 = 0.16
CG5180 = -0.214
sbb #1 = -0.0214
sbb #2 = -0.588

The results go on:
Target gene | reagent no. | droplet/nuclear area B-score, replicate 1 | droplet/nuclear area B-score, replicate 2 | droplet/nuclear area B-score, replicate 3
Prosalpha5 | 1 | -2.17 | 1.84 | –
kirre | 1 | -0.533 | -0.0347 | –
Eig71Ef | 1 | 0.952 | -0.293 | –
sgl | 1 | -0.00449 | 0.00139 | –
CG32066 | 1 | -2.32 | 0.111 | –
CG32066 | 2 | 0.514 | -0.511 | –
CG11629 | 1 | -0.473 | 1.12 | –
fit | 1 | 0.284 | 0.901 | –
ChT | 1 | 1.7 | 2.21 | –
CG5861 | 1 | -1.1 | -1.66 | –
PIG-S | 1 | 1.89 | 3.2 | –
PIG-S | 2 | 0.775 | -0.295 | –
PIG-S | 3 | 0.142 | 0.514 | –
CG42266 | 1 | -1.64 | -0.66 | –
CG42266 | 2 | 2.75 | -1.25 | –
CG1635 | 1 | 0.682 | 0.674 | –
CG16800 | 1 | -1.87 | 0.679 | –
fl(2)d | 1 | 0.542 | 0.353 | –
alphaTub84D | 1 | 0.77 | 0.17 | –
SA1 | 1 | -0.554 | -2.67 | –
Ttc7 | 1 | -0.424 | 0.755 | –
CG5921 | 1 | 0.807 | -0.257 | –
CG5921 | 2 | 1.42 | -0.135 | –
Stacl + CG8179 (retired record) | 1 | 4.03 | 6.56 | 1.87
Stacl + CG8179 (retired record) | 2 | 0.129 | -0.821 | –
Sec16 | 1 | 0.773 | 1.85 | 5.33
Sec16 | 2 | -0.307 | -0.107 | 0.12
CG31373 | 1 | -0.907 | 0.485 | –
Nt5b | 1 | 3.5 | 1.08 | –
Nt5b | 2 | -0.809 | -0.268 | –
Nt5b | 3 | 0.806 | -0.188 | –
Nt5b | 4 | -2.3 | 0.687 | –
CG32228 | 1 | 0.212 | -0.624 | –
CG11035 | 1 | -2.95 | 3.98 | –
alpha-Man-Ic | 1 | 0.162 | -1.05 | –
